In the supplement of paper PMC3334620:
The full ranking holds about 33,000 sequences; the median of “E-score (-0.5 to 0.5)” is about -0.015, and the highest 2% start at about 0.3. The list shows a part of the results.

biological target: T1, Abf1 (UniProt P14164); test: PBM E-score (8-mer binding enrichment) (E-score (-0.5 to 0.5)); higher = stronger / more preferred TF binding; settings: protein concentration: 200 nM; construct: GST-full length
T1 sequence: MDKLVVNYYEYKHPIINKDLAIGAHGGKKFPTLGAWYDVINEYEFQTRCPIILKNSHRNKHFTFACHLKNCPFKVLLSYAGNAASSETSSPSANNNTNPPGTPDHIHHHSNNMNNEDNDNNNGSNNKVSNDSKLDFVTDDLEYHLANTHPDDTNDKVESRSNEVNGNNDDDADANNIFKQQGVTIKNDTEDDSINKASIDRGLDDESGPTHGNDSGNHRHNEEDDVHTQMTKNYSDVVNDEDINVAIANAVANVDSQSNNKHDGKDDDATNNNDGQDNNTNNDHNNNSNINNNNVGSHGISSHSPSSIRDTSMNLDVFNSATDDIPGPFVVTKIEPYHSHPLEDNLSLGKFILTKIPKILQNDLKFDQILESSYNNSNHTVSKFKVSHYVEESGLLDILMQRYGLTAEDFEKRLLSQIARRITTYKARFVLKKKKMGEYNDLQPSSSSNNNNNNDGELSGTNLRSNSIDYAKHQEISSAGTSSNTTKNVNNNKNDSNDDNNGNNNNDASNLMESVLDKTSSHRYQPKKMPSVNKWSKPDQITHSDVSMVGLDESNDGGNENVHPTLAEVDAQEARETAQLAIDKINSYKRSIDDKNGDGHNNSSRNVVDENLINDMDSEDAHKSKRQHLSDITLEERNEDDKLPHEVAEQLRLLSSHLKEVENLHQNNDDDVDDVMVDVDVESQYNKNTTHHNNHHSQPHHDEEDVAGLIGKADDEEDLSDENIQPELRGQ
Method in brief: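 Universal all-10-mer Agilent arrays, double-stranded by primer extension on fresh or once-stripped slides, were probed with about 100-200 nM GST-tagged yeast transcription factors made by PURExpress. Fluorescent anti-GST detected bound protein, and masliner normalised the scans. E-scores from the Universal PBM Analysis Suite were given to each ungapped eight-base word pooled with its reverse complement.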

Row | Sequence | PBM E-score
1 | GAAGCAGA | -0.16
2 | AAACAGCT | -0.113
3 | GATGAATA | 0.0873
4 | AGGTACGA | 0.0832
5 | CTTTCAAC | -0.0534
6 | AACCTTGC | -0.0793
7 | ACCCTTAC | -0.0492
8 | CGATAAAA | 0.285
9 | CCTCAGGC | -0.0479
10 | AAGACCGG | -0.0657
11 | AGGGTTAG | -0.186
12 | CGGACTCC | -0.218
13 | GTCGTCCA | 0.236
14 | ACATATGA | 0.105
15 | GCGGAACA | -0.147
16 | GGGCGACC | -0.206
17 | CGGTGAAC | 0.0918
18 | CAGCTAGG | -0.341
19 | CACGTCTG | 0.146
20 | ACGTCACA | 0.0823
21 | CGATATAG | 0.241
22 | CAACTGCA | -0.0215
23 | AAATACAC | 0.12
24 | AGTGCAAA | 0.166
25 | ACCCGTCA | 0.015

Row | Sequence | PBM E-score
26 | AGCGCCCC | -0.35
27 | CACGCTCG | -0.0364
28 | CTTTGTTA | 0.0123
29 | CTTGAGGA | -0.153
30 | ATTATGAC | 0.171
31 | CGGGACCC | -0.364
32 | AATGGGAC | -0.115
33 | CACGATCG | 0.339
34 | CAAATCGG | -0.0701
35 | CAACATAA | 0.0698
36 | GTGAGCAC | 0.0115
37 | CAGGTGCA | -0.258
38 | AGGGAATA | -0.0196
39 | TATATATA | 0.111
40 | ATGCATGG | 0.0114
41 | GTAAGTTA | 0.0983
42 | ATCTGGTA | -0.0336
43 | CAAGCATC | -0.0759
44 | ACGTACGC | 0.114
45 | AGACCTCC | -0.301
46 | CTCGTCTC | 0.134
47 | ACAAGGAC | 0.0507
48 | CGTTATTA | 0.191
49 | CTCTTCAG | -0.118
50 | ATGTTCAC | 0.0691

Row | Sequence | PBM E-score
51 | AGGCGCTG | -0.199
52 | CCGACATC | 0.218
53 | GAAGTGGC | -0.197
54 | CCTACGGA | 0.0868
55 | GCCGTTTA | 0.102
56 | CGTTTGTA | 0.2
57 | GATGTCAA | -0.0282
58 | ATTCCAGA | -0.0736
59 | CATGGGGA | -0.0454
60 | GAGAATCA | -0.00605
61 | TATCCGCA | 0.111
62 | CGACCAAG | -0.133
63 | TGGAAAAA | -0.0303
64 | AGTACTAG | -0.0501
65 | CTTTTGAC | -0.0184
66 | AGAACAGA | -0.155
67 | CATGCTCC | 0.0168
68 | AGTGCGGG | -0.0483
69 | CTGCTTCA | -0.116
70 | CCCCAAGG | -0.403
71 | CAAAATTA | 0.0559
72 | GTTGCACA | -0.137
73 | AAATCCAC | 0.101
74 | CCAACTGA | -0.0672
75 | CGTCATAA | 0.207

Random excerpt: three entries already listed, in no set order.
Row | Sequence | PBM E-score
69 | CTGCTTCA | -0.116
44 | ACGTACGC | 0.114
51 | AGGCGCTG | -0.199

The list goes on.

Row | Sequence | PBM E-score
76 | AAACATGT | 0.0799
77 | AACGTTTA | -0.0328
78 | GCCACTCC | -0.0636
79 | GTACGATA | 0.259
80 | AGAGCTTG | -0.169
81 | ATGAGAGG | -0.216
82 | ATTCACAG | -0.0305
83 | ACGAAGAA | 0.288
84 | AGCCCGTA | 0.161
85 | AAACACCC | -0.0385
86 | CCCGTCGC | 0.0854
87 | ACGGAATA | 0.0684
88 | ACGCCGGA | -0.053
89 | GATCAGTA | 0.176
90 | AATTTTGA | 0.205
91 | CCAAGGAA | -0.185
92 | ACTGCTAG | -0.165
93 | AGACTTTG | 0.0104
94 | AGGGGGGG | -0.41
95 | ACTATGGA | -0.013
96 | AAAGTGTC | -0.0383
97 | CCCGTCGA | 0.253
98 | GATAAAAA | 0.231
99 | CGAGATTC | -0.0478
100 | CGTCCCTA | 0.0477

7 entries from above, in markdown:

| Row | Sequence | PBM E-score |
| --- | --- | --- |
| 77 | AACGTTTA | -0.0328 |
| 78 | GCCACTCC | -0.0636 |
| 81 | ATGAGAGG | -0.216 |
| 87 | ACGGAATA | 0.0684 |
| 93 | AGACTTTG | 0.0104 |
| 94 | AGGGGGGG | -0.41 |
| 100 | CGTCCCTA | 0.0477 |

Remaining list, next part.

Row | Sequence | PBM E-score
101 | CTGGCTGC | -0.142
102 | CATGATAC | 0.236
103 | CCAAGTAG | -0.122
104 | CCTGGTCG | -0.0129
105 | ATTTTTTC | 0.14
106 | ATATACTG | 0.116
107 | AGGCAAGC | -0.195
108 | CTTTTGCC | 0.0132
109 | GGACAGCA | -0.0279
110 | ATTTCCTG | 0.146
111 | GAGACCCC | -0.253
112 | CGAATGAA | -0.164
113 | AAGTTACG | 0.256
114 | GCAGAAAC | 0.0525
115 | AGATCGCG | 0.166
116 | GCTAGATA | 0.053
117 | GACACGCA | -0.112
118 | ACTAAAAG | 0.0434
119 | CTAAGAGA | -0.00333
120 | GTATGGTA | 0.0367
121 | TATAGTCA | 0.0498
122 | CCAGACTC | -0.183
123 | AAGCTGAG | -0.223
124 | GAGAGCAC | 0.0115
125 | GACAGTAC | 0.196

An excerpt of these results, in markdown:

| Row | Sequence | PBM E-score |
| --- | --- | --- |
| 102 | CATGATAC | 0.236 |
| 116 | GCTAGATA | 0.053 |

The list continues:

Row | Sequence | PBM E-score
126 | CGAGAACC | -0.0363
127 | CCCCTAGG | -0.245
128 | GAGTGCAA | -0.128
129 | AAGACGGC | 0.118
130 | ACCGTTCT | 0.0916
131 | CTTAGTTC | -0.0152
132 | GAATCTAC | 0.0752
133 | ATGTTATG | 0.109
134 | CGCAATGC | -0.178
135 | ACCACAGT | -0.131
136 | TCAAAGGA | -0.0811
137 | CGCAGTGA | 0.151
138 | CAGGACCC | -0.171
139 | GTAGATAC | 0.0486
140 | CACCACTA | -0.0391
141 | CCACGAAC | 0.338
142 | ACATGACG | 0.161
143 | CCAGGACG | -0.125
144 | GCAGGTCC | -0.0766
145 | ATTGTAAC | 0.0577
146 | ATATGTTA | -0.0727
147 | TACCCTGA | -0.139
148 | CTGACGAC | 0.228
149 | CTTGCAAG | -0.0984
150 | ATAGCGTA | 0.0387

Row | Sequence | PBM E-score
151 | AATGAGGA | -0.0728
152 | ACAGCATC | -0.0789
153 | CTGGACAG | -0.169
154 | CCAATAGC | -0.0947
155 | CACACCTC | -0.13
156 | ATTAATTG | 0.158
157 | ACGTTCCC | 0.0384
158 | ATTTTAGG | 0.164
159 | AAACGATA | 0.376
160 | AGAATCTA | -0.00611
161 | AACTTGTG | 0.127
162 | CGTCCAAA | 0.207
163 | ATGGGAAG | -0.191
164 | ACTTGTCA | 0.264
165 | CACCGACA | 0.0857
166 | AGAGTGAG | 0.0964
167 | CGGAGGAC | -0.135
168 | AACGGGTA | 0.0715
169 | AAAAGTAG | 0.12
170 | AGCAAGAC | 0.0323
171 | AAACACAA | -0.0197
172 | GTGCCCGA | 0.116
173 | AAGTACTG | -0.0963
174 | ACACGCCG | -0.0835
175 | ACATCCCG | 0.0611

Row | Sequence | PBM E-score
176 | AGACGCGA | -0.0282
177 | CTTGCGTA | 0.114
178 | GGTCATGA | 0.124
179 | CGAAACTA | 0.273
180 | CGGTCCTC | -0.114
181 | CAGGTGAC | 0.22
182 | ATCTAGAG | 0.0253
183 | AGGCCCCG | -0.122
184 | ATCTATGA | -0.0019
185 | CTCATAAA | 0.00302
186 | ATACCTGA | -0.11
187 | CCTAGACA | -0.177
188 | CGATTTGC | -0.156
189 | CCTCGCGC | -0.0669
190 | AGTGCAAT | -0.0902
191 | ACCTCATA | 0.195
192 | AGAGCTCA | -0.163
193 | CTCGTGTA | 0.157
194 | GGAGGTAA | 0.0568
195 | GCGATCGC | 0.148
196 | ATGTGTAG | -0.158
197 | ACAATGAA | 0.0646
198 | GGCTTGAC | -0.237
199 | CCCCCCAG | -0.448
200 | AGCCGGTA | -0.013

Row | Sequence | PBM E-score
201 | CGCTGTGA | 0.0398
202 | ATTGGTCG | 0.07
203 | GATTACAA | 0.19
204 | GGGACAGA | -0.0867
205 | CGTACTCA | 0.304
206 | CAAGACAC | -0.0928
207 | CCGGCGCA | -0.116
208 | TCAAGCGA | 0.0108
209 | CGCGACGC | 0.127
210 | ATATCGAG | 0.11
211 | ACGAAGCA | 0.214
212 | ATTATCGA | -0.0815
213 | GGGGTCGA | -0.208
214 | GACTGAGC | -0.146
215 | CATCATAC | 0.263
216 | GCAAATAC | -0.0641
217 | CCCTCCTA | -0.168
218 | AATGCTCT | 0.0865
219 | AATGTTTG | -0.102
